No constants are given. Whether binding was seen depends on the method and setting. Binding seen in cells or lysates may run through a third protein. Some entries that bind do so weakly or less than the wild type. Tags and fused reporters may be left off the sequences shown.

Protein sequences, listed by entry. Tags and fused reporters are not part of them.
UniProt Q06413: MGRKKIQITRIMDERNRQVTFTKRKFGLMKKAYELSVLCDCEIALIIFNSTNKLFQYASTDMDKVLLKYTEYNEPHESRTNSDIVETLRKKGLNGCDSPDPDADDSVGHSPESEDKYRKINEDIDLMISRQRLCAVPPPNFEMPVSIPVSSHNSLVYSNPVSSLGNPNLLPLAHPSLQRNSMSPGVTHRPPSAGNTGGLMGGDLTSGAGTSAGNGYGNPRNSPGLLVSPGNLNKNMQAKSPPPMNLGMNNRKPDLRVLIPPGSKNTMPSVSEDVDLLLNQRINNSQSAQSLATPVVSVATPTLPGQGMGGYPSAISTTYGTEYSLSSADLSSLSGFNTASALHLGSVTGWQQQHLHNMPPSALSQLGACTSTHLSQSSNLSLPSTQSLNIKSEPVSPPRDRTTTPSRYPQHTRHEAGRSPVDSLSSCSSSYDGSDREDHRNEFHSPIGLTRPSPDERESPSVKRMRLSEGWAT

This assay has as its target Flag-tagged MEF2C (UniProt Q06413). Kind of assay: co-IP; HEK-293 cells co-transfected with MEF2C-Flag and Myc-MRF4 or Myc-myogenin, plus a plasmid coding for E47; lysates immunoprecipitated with anti-Flag, western blot with anti-Myc; Immunocruz IP/WB Optima System.

B1: Myc-tagged myogenin (protein, UniProt P20428 1-287)
chain: MELYETSPYFYQEPHFYDGENYLPVHLQGFEPPGYERTELSLSPEARGPLEEKGLGTPEHCPGQCLPWACKVCKRKSVSVDRRRAATLREKRRLKKVNEAFEALKRSTLLNPNQRLPKVEILRSAIQYIERLQALLSSLNQEERDLRYRGGGGPSRWYPVNATPTAPPAVRSGAMHWSLVPTQEIICSQLTLQVPTTCTPLRPSWTASRWRICLSPSQMKPCPTEIVCQAGCAWEPLSWCQTPPLLQQGPFKWGCPGAQKTALGCHKPDYPPSIHIRLTPSPAREFN
For the molecule B1, the binding result was “binds”.

B2: Myc-tagged MRF4 (protein, UniProt P15375 1-242)
chain: MMMDLFETGSYFFYLDGENVTLQPLEVAEGSPLYPGSDGTLSPCQDQMPQEAGSDSSGEEHVLAPPGLQPPHCPGQCLIWACKTCKRKSAPTDRRKAATLRERRRLKKINEAFEALKRRTVANPNQRLPKVEILRSAISYIERLQDLLHRLDQQEKMQELGVDPYSYKPKQEILEGADFLRTCSPQWPSVSDHSRGLVITAKEGGANVDASASSSLQRLSSIVDSISSEERKLPSVEEVVEK
Regarding B2, the binding result is “binds”.
